These are yes or no findings as the source states them, for the method shown. Binding seen in cells or lysates may run through a third protein. These calls come from enrichment with a bait or labelling near it, and not all partners need be listed.
Biological target: T1, PilQ from Pseudomonas aeruginosa (type IVa pilus secretin) (Pseudomonas aeruginosa) (UniProt P34750)
T1 sequence: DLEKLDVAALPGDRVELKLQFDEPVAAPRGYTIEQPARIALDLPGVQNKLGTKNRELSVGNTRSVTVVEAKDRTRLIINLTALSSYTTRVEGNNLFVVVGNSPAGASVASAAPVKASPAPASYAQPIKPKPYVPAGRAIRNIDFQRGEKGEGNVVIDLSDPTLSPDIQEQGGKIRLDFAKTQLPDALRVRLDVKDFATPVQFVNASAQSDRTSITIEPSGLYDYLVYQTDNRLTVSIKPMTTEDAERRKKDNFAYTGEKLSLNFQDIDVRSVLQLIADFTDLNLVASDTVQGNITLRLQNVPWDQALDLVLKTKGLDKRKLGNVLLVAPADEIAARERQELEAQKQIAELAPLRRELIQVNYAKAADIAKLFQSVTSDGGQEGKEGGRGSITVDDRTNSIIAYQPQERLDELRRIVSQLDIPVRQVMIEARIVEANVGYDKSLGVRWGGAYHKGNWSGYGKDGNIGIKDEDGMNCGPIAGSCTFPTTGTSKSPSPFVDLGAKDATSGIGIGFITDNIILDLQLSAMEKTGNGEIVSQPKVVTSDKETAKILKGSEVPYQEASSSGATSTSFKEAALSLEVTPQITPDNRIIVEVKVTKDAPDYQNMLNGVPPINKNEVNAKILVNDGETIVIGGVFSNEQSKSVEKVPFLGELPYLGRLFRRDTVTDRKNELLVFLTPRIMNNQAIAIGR
Test: affinity purification with mass spectrometry

TsaP from Pseudomonas aeruginosa was tested, and the binding was “binds”.

— article doi:10.1101/2020.05.29.123786
